Source: patent US20230203142A1, “TREATMENT OF METABOLIC DISORDERS THROUGH THE TARGETING OF A NOVEL CIRCULATING HORMONE COMPLEX” (The President and Fellows of Harvard College, priority 2020, published 2023)
These are yes or no findings as the source states them, for the method shown. Some entries that bind do so weakly or less than the wild type.

Amino acid sequences for entries named in this document (tags omitted). A change or cut given only in a name is not applied to a line headed by its entry.
UniProt P55263: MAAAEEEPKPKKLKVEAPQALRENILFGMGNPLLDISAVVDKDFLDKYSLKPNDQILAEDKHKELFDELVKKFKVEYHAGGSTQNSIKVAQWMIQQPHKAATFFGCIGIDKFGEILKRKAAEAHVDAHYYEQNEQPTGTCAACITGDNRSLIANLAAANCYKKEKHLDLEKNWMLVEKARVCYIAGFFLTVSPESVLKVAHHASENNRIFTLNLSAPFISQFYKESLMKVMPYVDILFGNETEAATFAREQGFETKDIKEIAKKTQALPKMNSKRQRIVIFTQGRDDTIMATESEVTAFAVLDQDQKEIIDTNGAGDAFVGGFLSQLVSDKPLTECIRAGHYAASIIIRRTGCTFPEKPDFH
UniProt P15531: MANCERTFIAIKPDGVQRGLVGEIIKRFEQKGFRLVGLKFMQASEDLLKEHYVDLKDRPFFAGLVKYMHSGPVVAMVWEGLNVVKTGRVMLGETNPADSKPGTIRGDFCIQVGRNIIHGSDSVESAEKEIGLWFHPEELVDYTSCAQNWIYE

Key:
[1] = target: human ADK (adenosine kinase), recombinant (human) (UniProt P55263); experiment: MST
[2] = target: human NDPK-A (nucleoside diphosphate kinase A), full-length recombinant (human) (UniProt P15531); experiment: MST

- binding [1]: binds
- binding [2]: binds
B1: recombinant human FABP4 (fatty acid binding protein 4) (protein)
chain: CDAFVGTWKLVSSENFDDYMKEVGVGFATRKVAGMAKPNMIISVNGDVITIKSESTFKNTEISFILGQEFDEVTADDRKVKSTITLDGGVLVHVQKWDGKSTTIKRKREDDKLVVECVMKGVTSTRVYERA
